Reference: paper PMC4122391, “Analysis of Functions of VIP1 and Its Close Homologs in Osmosensory Responses of Arabidopsis thaliana”
These are yes or no findings as the source states them, for the method shown. For some of these results: Binding seen in cells or lysates may run through a third protein. Some results given as binding are weak or reduced against the parent protein; the word gives no strength. Tags and fused reporters may be left off the sequences shown.

Assays:
[1] = target: T1, GAL4 DNA-binding domain-fused VIP1ΔN164 (C-terminal region, amino acids 165–341, of VIP1) (Arabidopsis thaliana) (UniProt Q9MA75); test: two-hybrid; S. cerevisiae AH109 co-transformed with pGBKT7-VIP1ΔN164 (GAL4 BD fusion, bait) and pGADT7-Rec constructs (GAL4 AD fusions); growth on SD medium lacking adenine and histidine; BD alone as control
T1 sequence: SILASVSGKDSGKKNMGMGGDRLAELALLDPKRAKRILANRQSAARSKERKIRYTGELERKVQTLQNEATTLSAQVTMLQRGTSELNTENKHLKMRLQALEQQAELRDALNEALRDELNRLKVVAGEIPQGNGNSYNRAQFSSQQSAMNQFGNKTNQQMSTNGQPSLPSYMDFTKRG

[2] = target: T2, VIP1 fused to nYFP or to cYFP (BiFC constructs) (Arabidopsis thaliana) (UniProt Q9MA75); test: split reporter; BiFC: nYFP-fused VIP1 and cYFP-fused proteins co-introduced into onion epidermal cells by particle bombardment; YFP fluorescence by epifluorescence microscopy; nYFP alone and cYFP alone as negative controls
T2 sequence: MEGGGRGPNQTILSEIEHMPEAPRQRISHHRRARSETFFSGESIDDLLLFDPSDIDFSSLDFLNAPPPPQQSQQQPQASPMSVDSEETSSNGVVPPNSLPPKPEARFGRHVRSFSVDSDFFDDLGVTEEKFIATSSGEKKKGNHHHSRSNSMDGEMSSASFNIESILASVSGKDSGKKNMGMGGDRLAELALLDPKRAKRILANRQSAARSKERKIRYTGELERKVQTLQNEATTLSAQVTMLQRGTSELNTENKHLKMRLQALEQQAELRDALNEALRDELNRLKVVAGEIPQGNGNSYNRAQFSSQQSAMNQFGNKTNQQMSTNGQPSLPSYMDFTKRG

B1: GAL4 activation domain-fused full-length VIP1 (protein, UniProt Q9MA75 1-341)
chain: T2 sequence
- binding [1]: binds

B2: GAL4 activation domain-fused PosF21 (protein, UniProt Q04088 1-398)
chain: MDKEKSPAPPCGGLPPPSPSGRCSAFSEAGPIGHGSDANRMSHDISRMLDNPPKKIGHRRAHSEILTLPDDLSFDSDLGVVGNAADGASFSDETEEDLLSMYLDMDKFNSSATSSAQVGEPSGTAWKNETMMQTGTGSTSNPQNTVNSLGERPRIRHQHSQSMDGSMNINEMLMSGNEDDSAIDAKKSMSATKLAELALIDPKRAKRIWANRQSAARSKERKTRYIFELERKVQTLQTEATTLSAQLTLLQRDTNGLTVENNELKLRLQTMEQQVHLQDELNEALKEEIQHLKVLTGQVAPSALNYGSFGSNQQQFYSNNQSMQTILAAKQFQQLQIHSQKQQQQQQQQQQQHQQQQQQQQQYQFQQQQMQQLMQQRLQQQEQQNGVRLKPSQAQKEN
- binding [1]: binds

B3: VIP1 fused to nYFP or to cYFP (BiFC constructs) (protein, UniProt Q9MA75 1-341)
chain: T2 sequence
- binding [2]: binds

B4: cYFP-fused PosF21 (protein, UniProt Q04088 1-398)
chain: B2 chain
- binding [2]: binds
